Our source for the binding values is paper PMC5823910.

Amino acid sequences for entries named in this document (tags omitted). A change or cut given only in a name is not applied to a line headed by its entry.
UniProt Q13315: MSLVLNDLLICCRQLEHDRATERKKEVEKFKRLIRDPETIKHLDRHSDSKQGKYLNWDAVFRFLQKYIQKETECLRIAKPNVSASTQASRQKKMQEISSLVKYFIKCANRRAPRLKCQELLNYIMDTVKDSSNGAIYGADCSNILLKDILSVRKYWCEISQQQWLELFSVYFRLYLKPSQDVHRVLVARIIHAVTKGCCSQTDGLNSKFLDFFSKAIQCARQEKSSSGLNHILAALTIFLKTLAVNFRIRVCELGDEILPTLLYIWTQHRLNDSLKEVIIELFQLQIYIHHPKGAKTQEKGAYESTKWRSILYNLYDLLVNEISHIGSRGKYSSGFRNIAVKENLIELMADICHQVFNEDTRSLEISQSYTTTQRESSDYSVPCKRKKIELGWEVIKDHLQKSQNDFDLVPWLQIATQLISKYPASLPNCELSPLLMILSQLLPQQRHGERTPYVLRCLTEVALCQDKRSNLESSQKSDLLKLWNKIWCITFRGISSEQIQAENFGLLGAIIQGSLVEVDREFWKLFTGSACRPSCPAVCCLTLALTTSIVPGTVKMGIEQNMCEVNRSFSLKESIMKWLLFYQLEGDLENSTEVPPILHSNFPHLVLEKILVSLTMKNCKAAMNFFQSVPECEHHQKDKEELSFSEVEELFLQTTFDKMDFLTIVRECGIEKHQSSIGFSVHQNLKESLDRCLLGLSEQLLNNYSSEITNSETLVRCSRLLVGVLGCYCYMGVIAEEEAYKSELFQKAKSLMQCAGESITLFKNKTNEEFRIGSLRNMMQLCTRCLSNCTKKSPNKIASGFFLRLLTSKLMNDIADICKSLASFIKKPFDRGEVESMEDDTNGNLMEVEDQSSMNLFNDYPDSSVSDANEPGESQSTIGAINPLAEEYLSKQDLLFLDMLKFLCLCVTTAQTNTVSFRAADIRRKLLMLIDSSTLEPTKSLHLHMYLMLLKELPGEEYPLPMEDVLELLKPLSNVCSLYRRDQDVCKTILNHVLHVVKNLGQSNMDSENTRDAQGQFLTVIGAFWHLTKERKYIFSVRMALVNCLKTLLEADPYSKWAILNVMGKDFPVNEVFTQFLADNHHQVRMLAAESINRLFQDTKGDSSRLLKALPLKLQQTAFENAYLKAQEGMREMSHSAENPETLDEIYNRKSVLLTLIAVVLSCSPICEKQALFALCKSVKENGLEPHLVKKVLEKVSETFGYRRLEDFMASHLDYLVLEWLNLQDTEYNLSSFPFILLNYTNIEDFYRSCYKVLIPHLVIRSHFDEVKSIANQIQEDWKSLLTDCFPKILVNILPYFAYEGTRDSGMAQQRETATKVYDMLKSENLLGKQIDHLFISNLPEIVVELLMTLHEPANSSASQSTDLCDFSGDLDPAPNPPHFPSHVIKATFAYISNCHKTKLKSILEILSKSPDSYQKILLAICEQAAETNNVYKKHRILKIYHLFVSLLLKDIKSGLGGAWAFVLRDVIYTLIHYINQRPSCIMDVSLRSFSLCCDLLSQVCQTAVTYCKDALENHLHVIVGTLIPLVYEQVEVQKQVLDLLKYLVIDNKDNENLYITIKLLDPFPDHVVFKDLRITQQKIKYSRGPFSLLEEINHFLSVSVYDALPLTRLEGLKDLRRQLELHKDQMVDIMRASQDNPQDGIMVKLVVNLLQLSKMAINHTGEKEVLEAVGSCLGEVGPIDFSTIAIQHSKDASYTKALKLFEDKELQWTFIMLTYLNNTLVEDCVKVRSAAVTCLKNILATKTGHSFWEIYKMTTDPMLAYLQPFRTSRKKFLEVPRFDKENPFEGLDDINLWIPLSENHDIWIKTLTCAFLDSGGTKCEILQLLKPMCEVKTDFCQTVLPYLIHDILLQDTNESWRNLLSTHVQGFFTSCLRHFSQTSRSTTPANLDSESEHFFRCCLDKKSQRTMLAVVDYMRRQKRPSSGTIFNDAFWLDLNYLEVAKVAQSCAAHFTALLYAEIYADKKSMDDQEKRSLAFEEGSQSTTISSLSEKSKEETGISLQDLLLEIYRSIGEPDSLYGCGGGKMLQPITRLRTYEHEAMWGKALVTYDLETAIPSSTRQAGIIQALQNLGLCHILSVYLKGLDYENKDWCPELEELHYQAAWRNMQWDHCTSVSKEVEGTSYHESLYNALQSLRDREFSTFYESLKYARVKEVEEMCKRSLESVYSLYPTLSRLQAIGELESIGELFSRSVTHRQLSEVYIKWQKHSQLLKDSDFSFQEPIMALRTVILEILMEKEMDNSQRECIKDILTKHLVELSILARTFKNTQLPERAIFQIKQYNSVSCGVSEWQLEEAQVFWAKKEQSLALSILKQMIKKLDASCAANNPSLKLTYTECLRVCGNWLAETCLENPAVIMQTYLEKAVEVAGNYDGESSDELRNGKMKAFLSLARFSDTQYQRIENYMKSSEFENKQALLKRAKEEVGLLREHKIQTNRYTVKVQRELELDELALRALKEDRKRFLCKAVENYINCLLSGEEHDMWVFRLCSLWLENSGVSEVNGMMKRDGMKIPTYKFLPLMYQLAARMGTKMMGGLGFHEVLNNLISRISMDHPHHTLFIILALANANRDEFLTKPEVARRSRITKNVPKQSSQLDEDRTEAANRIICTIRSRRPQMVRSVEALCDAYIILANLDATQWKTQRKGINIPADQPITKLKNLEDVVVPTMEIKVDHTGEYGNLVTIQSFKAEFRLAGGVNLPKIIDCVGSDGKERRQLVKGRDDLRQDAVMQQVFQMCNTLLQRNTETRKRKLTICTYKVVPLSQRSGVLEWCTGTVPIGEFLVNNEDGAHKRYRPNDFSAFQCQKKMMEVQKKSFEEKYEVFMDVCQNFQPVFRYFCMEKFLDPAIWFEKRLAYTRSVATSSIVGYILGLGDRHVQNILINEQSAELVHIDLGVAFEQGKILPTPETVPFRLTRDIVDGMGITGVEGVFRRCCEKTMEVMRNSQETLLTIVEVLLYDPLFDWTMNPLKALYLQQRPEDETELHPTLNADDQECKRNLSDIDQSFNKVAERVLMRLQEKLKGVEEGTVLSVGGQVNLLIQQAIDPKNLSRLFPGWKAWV
UniProt P67775: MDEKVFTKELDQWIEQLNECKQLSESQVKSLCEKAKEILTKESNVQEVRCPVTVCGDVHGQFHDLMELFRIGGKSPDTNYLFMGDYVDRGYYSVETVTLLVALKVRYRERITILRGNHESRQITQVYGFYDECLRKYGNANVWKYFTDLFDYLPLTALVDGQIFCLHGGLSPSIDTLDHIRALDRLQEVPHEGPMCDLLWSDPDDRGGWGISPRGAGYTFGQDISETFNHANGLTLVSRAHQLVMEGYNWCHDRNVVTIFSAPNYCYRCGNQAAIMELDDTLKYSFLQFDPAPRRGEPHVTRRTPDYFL

These are yes or no findings as the source states them, for the method shown. Binding seen in cells or lysates may run through a third protein. For part of these data: A result given as binding can be weak or reduced; the word gives no strength.

In assay [1] the target is T1, PR130, PP2A regulatory subunit encoded by PPP2R3A (human (endogenous in HCT116)) (UniProt Q06190).
T1 sequence: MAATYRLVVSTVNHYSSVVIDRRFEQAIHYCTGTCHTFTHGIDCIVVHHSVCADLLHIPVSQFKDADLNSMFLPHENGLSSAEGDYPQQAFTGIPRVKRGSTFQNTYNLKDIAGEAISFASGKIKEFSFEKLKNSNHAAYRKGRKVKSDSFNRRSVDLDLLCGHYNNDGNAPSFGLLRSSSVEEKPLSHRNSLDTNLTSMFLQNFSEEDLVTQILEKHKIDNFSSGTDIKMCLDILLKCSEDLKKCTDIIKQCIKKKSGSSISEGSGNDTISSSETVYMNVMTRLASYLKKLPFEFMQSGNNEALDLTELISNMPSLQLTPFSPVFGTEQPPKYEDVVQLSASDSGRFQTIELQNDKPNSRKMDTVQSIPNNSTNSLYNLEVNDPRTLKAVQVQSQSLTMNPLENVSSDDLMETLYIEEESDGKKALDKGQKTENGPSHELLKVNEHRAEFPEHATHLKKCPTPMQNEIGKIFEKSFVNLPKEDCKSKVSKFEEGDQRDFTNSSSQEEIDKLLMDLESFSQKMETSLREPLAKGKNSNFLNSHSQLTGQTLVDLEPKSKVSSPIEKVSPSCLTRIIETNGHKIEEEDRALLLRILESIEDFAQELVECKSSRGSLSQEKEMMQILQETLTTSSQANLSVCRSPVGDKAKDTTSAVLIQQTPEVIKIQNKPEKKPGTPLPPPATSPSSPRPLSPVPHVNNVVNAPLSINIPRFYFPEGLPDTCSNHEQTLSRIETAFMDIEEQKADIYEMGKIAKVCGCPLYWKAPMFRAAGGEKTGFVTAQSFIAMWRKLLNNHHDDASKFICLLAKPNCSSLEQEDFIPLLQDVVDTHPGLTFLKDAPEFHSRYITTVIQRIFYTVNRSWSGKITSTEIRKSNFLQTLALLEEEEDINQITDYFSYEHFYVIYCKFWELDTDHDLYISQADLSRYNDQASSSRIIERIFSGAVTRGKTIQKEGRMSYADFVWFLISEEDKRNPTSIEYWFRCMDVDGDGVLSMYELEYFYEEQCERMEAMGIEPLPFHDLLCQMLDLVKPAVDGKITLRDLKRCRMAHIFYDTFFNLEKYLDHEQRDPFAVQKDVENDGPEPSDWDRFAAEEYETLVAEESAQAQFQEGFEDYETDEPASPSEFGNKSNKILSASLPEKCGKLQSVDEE
Nature of the assay: co-IP; PR130 immunoprecipitated from HCT116 cells treated with MS-275 (the discussion says hydroxyurea plus MS-275); precipitate probed for PP2A-A and PP2A-C (Supplementary Fig. 4e).

In assay [2] the target is ATM (ataxia telangiectasia mutated) (human (endogenous in HCT116 and K562)) (UniProt Q13315). The assay can be described thus: co-IP; HCT116 and K562 cells; no PFA fixation; lysis in NET-N buffer; 2 mg protein with 0.8 µg anti-ATM antibody (Millipore PC116) or rabbit IgG overnight at 4 °C; four washes with NET-N buffer; probed for PP2A-A and PP2A-C (Supplementary Fig. 4f).

Take “PP2A-C (catalytic subunit of PP2A, PPP2CA/B) (from UniProt P67775) (enzyme)”: the binding entry was “binds” in assay [1] and “no binding” in assay [2].
In the case of “PP2A-A (structural subunit of PP2A, PPP2R1A/B) (human (endogenous in HCT116 and K562))”, in assay [1], the binding entry is “binds”.
